These are yes or no findings as the source states them, for the method shown. Binding seen in cells or lysates may run through a third protein. Some results given as binding are weak or reduced against the parent protein; the word gives no strength.
Experiments:
HERC2-HA = HERC2-HA (UniProt O95714); experiment: co-IP; HEK293T cells co-transfected with HERC2-HA and β-catenin-FLAG plasmids; immunoprecipitation with anti-HA magnetic beads, blot with anti-FLAG antibody
[1] = molecular target: HECT and RLD domain-containing E3 ubiquitin protein ligase 2 (HERC2) (human (endogenous in HepaRG)) (UniProt O95714); experiment: co-IP; endogenous proteins in HepaRG whole-cell lysates; 1 µg antibody at 4 °C overnight, protein A/G agarose 2 hours at 4 °C, SDS-PAGE and blot; cells treated with 20 mM APAP for 6 hours; for β-catenin and GSK3β HERC2-deficient (Cas9 HERC2) cells

Protein sequences, listed by entry. Tags and fused reporters are not part of them.
UniProt O95714: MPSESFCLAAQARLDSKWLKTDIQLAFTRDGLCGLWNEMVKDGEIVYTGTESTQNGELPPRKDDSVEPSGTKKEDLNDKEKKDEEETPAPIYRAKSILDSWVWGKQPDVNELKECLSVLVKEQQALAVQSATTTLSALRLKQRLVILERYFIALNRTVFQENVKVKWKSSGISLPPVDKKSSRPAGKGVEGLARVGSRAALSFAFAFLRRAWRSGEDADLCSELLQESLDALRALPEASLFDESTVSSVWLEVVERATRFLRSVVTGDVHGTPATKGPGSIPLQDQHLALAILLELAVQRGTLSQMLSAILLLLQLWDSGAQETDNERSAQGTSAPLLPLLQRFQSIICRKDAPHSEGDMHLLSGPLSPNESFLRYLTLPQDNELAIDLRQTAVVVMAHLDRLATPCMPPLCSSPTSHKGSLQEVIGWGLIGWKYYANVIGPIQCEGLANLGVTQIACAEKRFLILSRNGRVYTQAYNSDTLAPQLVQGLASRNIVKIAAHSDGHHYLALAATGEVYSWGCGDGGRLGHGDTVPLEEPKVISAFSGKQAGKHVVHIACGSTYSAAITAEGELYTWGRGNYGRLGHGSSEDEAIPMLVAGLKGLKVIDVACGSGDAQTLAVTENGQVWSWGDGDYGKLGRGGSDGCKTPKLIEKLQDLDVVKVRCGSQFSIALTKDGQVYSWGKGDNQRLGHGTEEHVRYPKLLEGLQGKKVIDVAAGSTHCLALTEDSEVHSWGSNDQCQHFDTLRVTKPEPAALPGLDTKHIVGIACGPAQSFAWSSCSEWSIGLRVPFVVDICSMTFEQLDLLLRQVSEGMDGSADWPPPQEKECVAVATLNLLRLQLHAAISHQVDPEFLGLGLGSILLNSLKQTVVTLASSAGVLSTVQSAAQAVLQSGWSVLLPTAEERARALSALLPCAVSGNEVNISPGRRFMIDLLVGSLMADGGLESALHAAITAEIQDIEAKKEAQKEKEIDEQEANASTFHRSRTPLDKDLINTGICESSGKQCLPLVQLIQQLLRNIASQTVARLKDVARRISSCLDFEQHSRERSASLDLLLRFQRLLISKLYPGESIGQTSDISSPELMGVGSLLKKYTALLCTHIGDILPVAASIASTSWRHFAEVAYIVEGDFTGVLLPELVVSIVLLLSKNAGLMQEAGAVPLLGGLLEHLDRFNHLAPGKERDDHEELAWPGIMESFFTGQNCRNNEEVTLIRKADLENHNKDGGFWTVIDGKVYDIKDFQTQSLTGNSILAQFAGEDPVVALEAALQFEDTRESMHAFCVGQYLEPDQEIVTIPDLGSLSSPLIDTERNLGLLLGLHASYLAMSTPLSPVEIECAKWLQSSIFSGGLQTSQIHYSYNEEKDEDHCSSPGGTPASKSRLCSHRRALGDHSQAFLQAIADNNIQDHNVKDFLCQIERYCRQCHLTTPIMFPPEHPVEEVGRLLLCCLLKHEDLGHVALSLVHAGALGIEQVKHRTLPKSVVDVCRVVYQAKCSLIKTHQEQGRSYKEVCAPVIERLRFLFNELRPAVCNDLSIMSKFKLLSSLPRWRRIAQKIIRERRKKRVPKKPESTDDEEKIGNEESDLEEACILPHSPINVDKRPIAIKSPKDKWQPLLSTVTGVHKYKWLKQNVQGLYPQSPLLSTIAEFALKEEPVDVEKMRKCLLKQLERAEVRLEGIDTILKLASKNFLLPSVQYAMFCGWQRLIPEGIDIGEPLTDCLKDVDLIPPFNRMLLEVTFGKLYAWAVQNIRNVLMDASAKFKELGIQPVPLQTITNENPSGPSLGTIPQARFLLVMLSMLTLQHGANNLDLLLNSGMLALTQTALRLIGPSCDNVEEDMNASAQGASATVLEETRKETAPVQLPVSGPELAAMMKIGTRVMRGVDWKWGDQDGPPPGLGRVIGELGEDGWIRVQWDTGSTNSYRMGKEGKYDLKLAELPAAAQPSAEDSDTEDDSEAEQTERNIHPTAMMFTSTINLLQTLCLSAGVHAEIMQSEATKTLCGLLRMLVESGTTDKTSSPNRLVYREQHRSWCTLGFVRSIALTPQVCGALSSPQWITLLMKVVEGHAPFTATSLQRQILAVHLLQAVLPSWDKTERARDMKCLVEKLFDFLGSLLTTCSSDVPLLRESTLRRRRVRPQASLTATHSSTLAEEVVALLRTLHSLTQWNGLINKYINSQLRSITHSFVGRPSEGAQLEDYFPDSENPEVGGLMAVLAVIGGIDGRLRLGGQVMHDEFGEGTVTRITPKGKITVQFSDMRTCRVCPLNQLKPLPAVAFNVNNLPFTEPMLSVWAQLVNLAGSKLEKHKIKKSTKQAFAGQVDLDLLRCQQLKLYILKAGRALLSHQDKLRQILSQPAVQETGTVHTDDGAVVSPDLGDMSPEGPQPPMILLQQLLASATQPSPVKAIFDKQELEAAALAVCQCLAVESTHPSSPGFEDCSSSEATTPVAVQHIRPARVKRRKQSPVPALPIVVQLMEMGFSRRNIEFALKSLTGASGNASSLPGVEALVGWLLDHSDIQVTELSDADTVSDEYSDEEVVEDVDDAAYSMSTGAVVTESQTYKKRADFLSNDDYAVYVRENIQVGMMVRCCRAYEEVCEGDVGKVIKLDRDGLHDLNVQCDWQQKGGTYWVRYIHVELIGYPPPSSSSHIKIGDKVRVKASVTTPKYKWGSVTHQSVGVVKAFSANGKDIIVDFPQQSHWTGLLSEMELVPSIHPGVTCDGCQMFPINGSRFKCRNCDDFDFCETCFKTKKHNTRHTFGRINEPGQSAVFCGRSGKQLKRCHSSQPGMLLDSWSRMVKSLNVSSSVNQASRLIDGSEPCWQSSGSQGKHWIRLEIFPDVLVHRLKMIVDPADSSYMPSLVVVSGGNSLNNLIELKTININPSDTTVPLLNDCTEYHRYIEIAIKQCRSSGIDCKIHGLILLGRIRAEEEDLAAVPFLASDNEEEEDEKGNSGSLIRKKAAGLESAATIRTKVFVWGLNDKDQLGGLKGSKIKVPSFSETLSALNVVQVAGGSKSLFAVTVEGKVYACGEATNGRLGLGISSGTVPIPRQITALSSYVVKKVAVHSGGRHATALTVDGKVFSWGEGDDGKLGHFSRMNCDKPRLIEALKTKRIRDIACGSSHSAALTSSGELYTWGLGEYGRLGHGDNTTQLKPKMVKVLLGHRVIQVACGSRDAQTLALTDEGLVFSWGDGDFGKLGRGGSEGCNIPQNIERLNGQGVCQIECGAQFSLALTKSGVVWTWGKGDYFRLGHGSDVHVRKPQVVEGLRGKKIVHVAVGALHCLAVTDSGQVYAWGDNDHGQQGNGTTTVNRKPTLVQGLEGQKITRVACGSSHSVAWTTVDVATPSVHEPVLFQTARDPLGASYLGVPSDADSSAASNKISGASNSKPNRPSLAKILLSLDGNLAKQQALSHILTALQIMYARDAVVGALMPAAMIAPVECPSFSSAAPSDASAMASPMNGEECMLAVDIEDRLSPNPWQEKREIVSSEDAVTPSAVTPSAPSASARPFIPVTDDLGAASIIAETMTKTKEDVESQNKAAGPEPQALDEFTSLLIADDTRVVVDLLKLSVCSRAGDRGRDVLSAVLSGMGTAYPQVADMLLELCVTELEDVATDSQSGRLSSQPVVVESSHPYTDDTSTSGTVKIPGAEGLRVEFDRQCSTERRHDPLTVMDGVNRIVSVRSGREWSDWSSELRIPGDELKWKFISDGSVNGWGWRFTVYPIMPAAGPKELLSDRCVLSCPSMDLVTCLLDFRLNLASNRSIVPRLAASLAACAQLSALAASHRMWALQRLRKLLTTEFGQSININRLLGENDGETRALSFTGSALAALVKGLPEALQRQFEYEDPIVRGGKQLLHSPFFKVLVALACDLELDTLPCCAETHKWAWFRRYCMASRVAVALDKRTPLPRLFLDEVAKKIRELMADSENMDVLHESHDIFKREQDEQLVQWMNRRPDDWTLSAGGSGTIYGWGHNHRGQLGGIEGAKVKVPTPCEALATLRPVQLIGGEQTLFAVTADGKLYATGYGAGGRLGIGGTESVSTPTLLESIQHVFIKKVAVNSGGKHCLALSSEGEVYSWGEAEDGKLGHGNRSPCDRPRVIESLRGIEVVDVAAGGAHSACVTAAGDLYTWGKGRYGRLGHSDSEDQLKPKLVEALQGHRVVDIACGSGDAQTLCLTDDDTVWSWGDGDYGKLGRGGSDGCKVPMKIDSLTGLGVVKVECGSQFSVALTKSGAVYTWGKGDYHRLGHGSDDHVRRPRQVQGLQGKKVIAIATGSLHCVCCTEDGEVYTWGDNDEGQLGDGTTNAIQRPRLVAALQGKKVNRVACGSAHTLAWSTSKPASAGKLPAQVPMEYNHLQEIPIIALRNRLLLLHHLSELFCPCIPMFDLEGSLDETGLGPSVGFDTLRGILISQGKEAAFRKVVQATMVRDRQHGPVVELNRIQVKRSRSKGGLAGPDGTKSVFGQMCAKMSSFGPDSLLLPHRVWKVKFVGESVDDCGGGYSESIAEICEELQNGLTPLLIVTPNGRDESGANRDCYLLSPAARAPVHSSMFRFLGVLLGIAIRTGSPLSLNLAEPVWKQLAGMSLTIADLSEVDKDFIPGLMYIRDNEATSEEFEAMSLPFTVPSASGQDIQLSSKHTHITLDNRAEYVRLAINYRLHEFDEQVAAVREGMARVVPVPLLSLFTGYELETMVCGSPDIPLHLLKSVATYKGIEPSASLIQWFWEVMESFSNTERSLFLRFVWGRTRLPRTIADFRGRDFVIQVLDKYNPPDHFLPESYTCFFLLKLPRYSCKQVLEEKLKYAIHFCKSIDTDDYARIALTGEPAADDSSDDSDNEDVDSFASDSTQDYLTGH
UniProt P35222: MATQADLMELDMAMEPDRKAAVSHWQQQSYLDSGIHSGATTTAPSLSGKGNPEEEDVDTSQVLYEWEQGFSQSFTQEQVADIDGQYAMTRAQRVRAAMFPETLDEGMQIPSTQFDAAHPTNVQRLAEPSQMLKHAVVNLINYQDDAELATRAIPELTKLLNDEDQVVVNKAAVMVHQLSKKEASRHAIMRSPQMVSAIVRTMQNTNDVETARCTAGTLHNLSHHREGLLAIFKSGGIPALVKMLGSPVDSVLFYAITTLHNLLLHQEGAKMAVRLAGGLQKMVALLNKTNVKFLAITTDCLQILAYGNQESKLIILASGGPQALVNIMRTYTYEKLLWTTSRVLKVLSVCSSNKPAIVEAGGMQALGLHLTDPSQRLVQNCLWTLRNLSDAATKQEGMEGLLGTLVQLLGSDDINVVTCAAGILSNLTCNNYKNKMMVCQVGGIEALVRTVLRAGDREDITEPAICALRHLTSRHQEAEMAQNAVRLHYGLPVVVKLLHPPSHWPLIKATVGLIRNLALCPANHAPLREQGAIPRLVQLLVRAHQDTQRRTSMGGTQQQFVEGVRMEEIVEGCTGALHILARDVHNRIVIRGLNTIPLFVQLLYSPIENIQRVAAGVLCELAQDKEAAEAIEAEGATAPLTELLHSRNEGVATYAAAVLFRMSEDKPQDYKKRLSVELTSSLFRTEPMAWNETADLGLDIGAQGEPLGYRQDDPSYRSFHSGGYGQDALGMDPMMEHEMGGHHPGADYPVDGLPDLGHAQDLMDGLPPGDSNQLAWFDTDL

Substance	binding (HERC2-HA)	binding [1]
β-catenin-FLAG (from UniProt P35222 1-781)	binds	
β-catenin (CTNNB1) (from UniProt P35222 1-781)		binds
